# Literature values as cited in publication PMC11249109 (Drug Design, Development and Therapy, 2024).
# Test system: SARS-CoV-2
# Details: read-out: IC50, anti-SARS-CoV-2 activity; Vero E6 cells; cited from earlier work
smiles,measurement,value
"CCC(CC)COC(=O)[C@H](C)N[P@](=O)(OC[C@H]1O[C@@](C#N)(c2ccc3c(N)ncnn23)[C@H](O)[C@@H]1O)Oc1ccccc1 [remdesivir, reference compound]",IC50,2.71 µM
